Some of the results follow.
What follows are sequences tested against T1, OsSMF1 (Oryza sativa, UniProt Q6ZLB0 1-436) (assay: protein-binding microarray (RPBM); PBS, 2% BSA, 51.3 ng/ul salmon testes DNA, 50 uM zinc acetate, 200 nM TF, 25 C, 1 h; high values mean tight binding). Conditions: protein: recombinant; tags: N-terminal polyhistidine and DsRed monomer fusion (pET32a); chain copies: 2; label: CyDye5-dUTP incorporated in the synthesized complementary strand; 3' TTTTT single-stranded linker to array surface; dsDNA, one strand shown.
T1 sequence: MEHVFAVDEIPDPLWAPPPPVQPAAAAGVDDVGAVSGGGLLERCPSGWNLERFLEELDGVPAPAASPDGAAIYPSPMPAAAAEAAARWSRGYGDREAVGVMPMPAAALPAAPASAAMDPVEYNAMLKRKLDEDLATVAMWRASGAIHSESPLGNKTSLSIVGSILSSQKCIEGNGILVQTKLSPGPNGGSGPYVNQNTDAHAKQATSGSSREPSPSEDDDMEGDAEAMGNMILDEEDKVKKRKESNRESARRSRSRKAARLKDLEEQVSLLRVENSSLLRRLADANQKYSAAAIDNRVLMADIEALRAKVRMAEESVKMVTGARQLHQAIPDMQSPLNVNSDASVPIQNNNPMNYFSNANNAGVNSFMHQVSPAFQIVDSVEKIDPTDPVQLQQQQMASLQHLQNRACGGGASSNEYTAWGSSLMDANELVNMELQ
In short: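 Ni–NTA purification followed expression in E. coli BL21-CodonPlus of transcription factors fused N-terminally to a polyhistidine tag and DsRed. At 200 nM in PBS with 2% BSA, salmon testes DNA and 50 µM zinc acetate, the protein was incubated for 1 h at 25 °C with a custom Agilent array that had been primer-extended with Cy5-dUTP and blocked with 2% BSA. After washing, the array was read on an Axon 4000B scanner. The binding signal is per-feature fluorescence intensity in arbitrary units.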

Sequence | binding signal
AATCGGACGCTGACGTCAGCGCCCGATTTTCCCTCACCCACGGAGTCACCTAGTGCAG | 16600 fluorescence intensity (a.u.)
CCAGGAGATCACAATCGCCAAGTCAGATCCACCTTGCCTACGGAGTCACCTAGTGCAG | 4980 fluorescence intensity (a.u.)
CTAGTTTTATGATTGAGGGATGTGACTCAATCAAGAGCGACGGAGTCACCTAGTGCAG | 3490 fluorescence intensity (a.u.)
AAGTCTAGTTTTATTGCATGACTTGTGGTCTGACTCCACACGGAGTCACCTAGTGCAG | 3590 fluorescence intensity (a.u.)
CCCTCCTCTCCGCGCGCGCCACCTGTCCATCCGCGCGGAGCGGAGTCACCTAGTGCAG | 4750 fluorescence intensity (a.u.)
GGCCGCGGGAGACCGAGAGGCCTACCGTCCGGTGACTCCTCGGAGTCACCTAGTGCAG | 3310 fluorescence intensity (a.u.)
GCGAACCCGCATCCCGTTCGGCCACGTCTCCCAGCTCCCGCGGAGTCACCTAGTGCAG | 5620 fluorescence intensity (a.u.)
AGAACACATATGGCTCTGACATGGATTCATATCCATTGACCGGAGTCACCTAGTGCAG | 3640 fluorescence intensity (a.u.)
CAGTTGCGTCATCTTGACACACGCACTATTCAGAAGAAAACGGAGTCACCTAGTGCAG | 7040 fluorescence intensity (a.u.)
AGCGAGACACTTTGAGATTTAGTATGAGTCATGTAAATTACGGAGTCACCTAGTGCAG | 7830 fluorescence intensity (a.u.)
CCCGCCGTCGCCGGGGAAGACGACACGCCCGCCGTCCTTGCGGAGTCACCTAGTGCAG | 3580 fluorescence intensity (a.u.)
GAGTGTTGACTCACCAACTAACTCAACCACGTCTGATGATCGGAGTCACCTAGTGCAG | 4090 fluorescence intensity (a.u.)
CGCAGTGTAAAACGTCGTGGCAACCCCAACCGTCCCAATGCGGAGTCACCTAGTGCAG | 4720 fluorescence intensity (a.u.)
AGAGGAGCAACAACTAGTGGGTGCTGGAGGAGTTCGTTGTCGGAGTCACCTAGTGCAG | 16500 fluorescence intensity (a.u.)
CTCCACTGCCACTTCACTGATCGAGCTCACCTTTTCCTCTCGGAGTCACCTAGTGCAG | 3820 fluorescence intensity (a.u.)
TAGCTACGAACCCGGACACATGCGTGTCTAAGTTCATAGCCGGAGTCACCTAGTGCAG | 4150 fluorescence intensity (a.u.)
CATTGCAACGGTTCTGCTTGCTGCTGGTTCATCACTGTGCCGGAGTCACCTAGTGCAG | 32000 fluorescence intensity (a.u.)
CTCGCAGCAGCAGCTCCAGCCTCTCGAGCCTCCACGTCACCGGAGTCACCTAGTGCAG | 23400 fluorescence intensity (a.u.)
TTTACGACTGCTAATCGGCCTGAATGAGGCCCATCTATACCGGAGTCACCTAGTGCAG | 3300 fluorescence intensity (a.u.)
TTTTCTTTCTTAACTGCGTGACGTGTTCGATTCCTCGCCCCGGAGTCACCTAGTGCAG | 10800 fluorescence intensity (a.u.)
CCACTTTTATCTTGAAATATTACATCAGCAATCTAGAAAACGGAGTCACCTAGTGCAG | 3740 fluorescence intensity (a.u.)
GTCTTCACAAATCCGATGACGCCACGTCATCTATCCGGCCCGGAGTCACCTAGTGCAG | 46400 fluorescence intensity (a.u.)
TATAAGTTCGGTGTTACGTGTGCAGTGGTGTAGTGGTGCGCGGAGTCACCTAGTGCAG | 5760 fluorescence intensity (a.u.)
